Results are given in words; binding and its absence hold for the method and conditions named. In cells and extracts the contact can be indirect. Binding can be weak; no strength is given. Tags and fused reporters may be left off the sequences shown.
Molecular target: T1, 3x FLAG-tagged wild-type LONP1 (human ATP-dependent mitochondrial Lon protease) (human) (UniProt P36776)
T1 sequence: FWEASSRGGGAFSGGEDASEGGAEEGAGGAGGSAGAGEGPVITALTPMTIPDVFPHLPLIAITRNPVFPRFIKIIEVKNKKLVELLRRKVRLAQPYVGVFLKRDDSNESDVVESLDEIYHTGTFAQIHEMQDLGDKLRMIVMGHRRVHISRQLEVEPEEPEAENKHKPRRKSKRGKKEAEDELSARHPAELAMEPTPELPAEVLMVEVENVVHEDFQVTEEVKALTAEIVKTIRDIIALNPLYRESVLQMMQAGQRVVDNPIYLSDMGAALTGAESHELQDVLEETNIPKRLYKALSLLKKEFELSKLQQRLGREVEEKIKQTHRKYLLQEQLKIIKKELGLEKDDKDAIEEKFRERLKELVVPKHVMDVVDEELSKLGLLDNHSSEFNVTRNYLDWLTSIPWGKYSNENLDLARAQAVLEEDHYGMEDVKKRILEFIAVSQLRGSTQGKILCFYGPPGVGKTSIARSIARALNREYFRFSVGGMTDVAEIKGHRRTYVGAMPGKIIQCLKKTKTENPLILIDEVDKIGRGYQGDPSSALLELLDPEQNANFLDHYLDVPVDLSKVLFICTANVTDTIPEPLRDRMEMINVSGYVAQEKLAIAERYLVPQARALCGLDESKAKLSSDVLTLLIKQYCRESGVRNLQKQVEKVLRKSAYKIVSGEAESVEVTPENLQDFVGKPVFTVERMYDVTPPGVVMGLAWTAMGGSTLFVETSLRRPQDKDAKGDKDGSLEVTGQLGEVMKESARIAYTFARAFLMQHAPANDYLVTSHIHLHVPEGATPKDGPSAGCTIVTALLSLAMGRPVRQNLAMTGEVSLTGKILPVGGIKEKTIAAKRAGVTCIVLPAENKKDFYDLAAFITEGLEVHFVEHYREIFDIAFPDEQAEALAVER
Assay: co-IP; HEK293 cells expressing 3xFLAG-LONP1 (1 ng/mL doxycycline, 3 d) treated with the reversible crosslinker DSP (2 mM, on ice, 30 min), extracted in RIPA buffer; anti-FLAG-tag mAb magnetic beads, 90 min at 4 °C, eluted with FLAG peptides; DSP cleaved with DTT; immunoblot

With “translocase of the inner mitochondrial membrane 44 (TIMM44) (human (endogenous in HEK293))” the binding was “binds”.

Reference: article PMC8368198
